Results deposited as PubChem BioAssay AID1259424 (University of Nebraska Medical Center, 2018)
Aim: 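Rank knockdowns across the genome by resemblance to the KSR1 depletion profile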 (primary screen). System: human HCT116 colon cancer cells. Reagent: siRNA pool against human genes, 50 nM. Read-out: 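Log2 levels of six mRNAs (branched-DNA multiplex), adjusted by two reference genes and the non-targeting median, then scored against the average KSR1 knockdown pattern as Pearson r and euclidean distance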. Reading the numbers: mean correlation with KSR1 profile: higher = expression change more like KSR1 knockdown; mean distance from KSR1 profile: higher = expression change less like KSR1 knockdown.
Shown is an unselected part of about 14,000 reagents tested. 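Higher correlation or smaller distance means closer resemblance to KSR1 loss; control wells, including KSR1 knockdowns, recur on many plates.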 Further read-outs or replicates are left out here. Reagent sequences are not shown. The record does not give: the time to read-out.

With CREB3L2 (GeneID 64764), what was measured?
mean correlation with KSR1 profile: -0.545; mean distance from KSR1 profile: 2.58

How did the screen score KCNAB3 (GeneID 9196)?
mean correlation with KSR1 profile: -0.331; mean distance from KSR1 profile: 1.45

For WHRN (GeneID 25861), how do the results read?
mean correlation with KSR1 profile: -0.394; mean distance from KSR1 profile: 1.82

For GRIPAP1 (GeneID 56850), what does the deposit list?
mean correlation with KSR1 profile: -0.197; mean distance from KSR1 profile: 1.68

What did the screen give for CEP192 (GeneID 55125)?
mean correlation with KSR1 profile: -0.882; mean distance from KSR1 profile: 2.79

Limited to “mean distance from KSR1 profile” (2 entries from above):
KCNAB3 (GeneID 9196)	1.45
WHRN (GeneID 25861)	1.82

The results go on.
Which result is listed for GPR42 (GeneID 2866)?
mean correlation with KSR1 profile: 0.039; mean distance from KSR1 profile: 3.23

Which result is listed for TTC7A (GeneID 57217)?
mean correlation with KSR1 profile: -0.374; mean distance from KSR1 profile: 3.49

Which result is listed for ELOVL5 (GeneID 60481)?
mean correlation with KSR1 profile: 0.406; mean distance from KSR1 profile: 2.1

For LINC00597 (GeneID 81698), what does the deposit list?
mean correlation with KSR1 profile: 0.197; mean distance from KSR1 profile: 3.14

What is on record for ALK (GeneID 238)?
mean correlation with KSR1 profile: -0.188; mean distance from KSR1 profile: 1.96

With OCA2 (GeneID 4948), what does the deposit list?
mean correlation with KSR1 profile: -0.287; mean distance from KSR1 profile: 1.45

What did the screen give for GM2A (GeneID 2760)?
mean correlation with KSR1 profile: -0.841; mean distance from KSR1 profile: 2.33
